Data on 10 molecules can be found in US4532202A, “Coupler for photography” (Konishiroku Photo Industry Co., Ltd., priority 1982, dated 1985).

A short description of the data set: Generation of stain (increase in blue density at unexposed portion). To be noted: degree of increase in blue density at the unexposed portion of the sample subjected to light resistance test.
In the case of `CCCCCCCCCCCCC(Oc1ccc(O)c(C(C)(C)C)c1)C(=O)Nc1ccc(NC(=O)c2ccccc2F)c(O)c1` (stereo not shown) [Control coupler (G)], the Stain was determined as 390 percentage.
Molecule `CCC(C)C(Oc1ccc(C(C)(C)CC)cc1C(C)(C)CC)C(=O)Nc1cc(O)c(NC(=O)c2c(F)c(F)c(F)c(F)c2F)cc1Cl` (stereo not shown) [Exemplary compound (I-4)] displayed a Stain of 220 percentage.
`CCCCS(=O)(=O)Nc1ccc(OC(C(=O)Nc2cc(O)c(NC(=O)c3c(F)c(F)c(F)c(F)c3F)cc2Cl)C(C)C)cc1` (stereo not shown) [Exemplary compound (I-11)]: the Stain is on record as 240 percentage.
`CCC(C)(C)c1ccc(OC(C(=O)Nc2cc(O)c(NC(=O)c3c(F)c(F)c(F)c(F)c3F)cc2Cl)C(C)C)c(C(C)(C)CC)c1` (stereo not drawn) [Exemplary compound (I-2), 2-(2,3,4,5,6-pentafluoro)benazmido-4-chloro-5-[α-(2,4-di-t-amylphenoxy)-β-methylbutaneamido]phenol] yielded a Stain of 220 percentage.
For the molecule `CCC(Oc1ccc(C(C)(C)CC)cc1C(C)(C)CC)C(=O)Nc1cc(Cl)c(C)c(Cl)c1O` (stereo not shown) [Control coupler (E)], the Stain is listed as 220 percentage.
As to `CCCCC(Oc1ccc(C(C)(C)CC)cc1C(C)(C)CC)C(=O)Nc1ccc(NC(=O)C(F)(F)C(F)(F)C(F)(F)F)c(O)c1` (stereo not shown) [Control coupler (H)], the Stain came out at 280 percentage.
Turning to `CCCCCCCCCCCCC(Oc1ccc(NS(=O)(=O)CCCC)cc1)C(=O)Nc1cc(O)c(NC(=O)c2ccccc2)cc1Cl` (stereo not shown) [Control coupler (F)], the Stain is on record as 380 percentage.
As for `CCCCC(Oc1ccc(C(C)(C)CC)cc1C(C)(C)CC)C(=O)Nc1cc(O)c(NC(=O)c2c(F)c(F)c(F)c(F)c2F)cc1F` (stereo not shown) [Control coupler (I)], the Stain came out at 520 percentage.
Regarding `CCCCCCCCCCCCCCCc1cccc(OC(C(=O)Nc2cc(O)c(NC(=O)c3c(F)c(F)c(F)c(F)c3F)cc2Cl)C(C)C)c1` (stereo not drawn) [Exemplary compound (I-10), 2-(2,3,4,5,6-pentafluoro)benzamido-4-chloro-5-[α-(m-pentadecylphenoxy)-β-methylbutaneamido]phenol], the Stain worked out at 230 percentage.
The molecule `CC(C)C(Oc1ccc(C(C)(C)C)cc1C(C)(C)C)C(=O)Nc1cc(O)c(NC(=O)c2c(F)c(F)c(F)c(F)c2F)cc1Cl` (stereo not shown) [Exemplary compound (I-3)] had a Stain of 240 percentage.
